Assay [1] concerns the target Gli1 (wild-type, full-length) (human) (UniProt P08151). Put plainly: IP-Western, BE3 cells transfected with HA-T389E; the interaction was not inhibited by rapamycin.
The target is the same in assay [2]. Put plainly: IP-Western, BE3 cells transfected with HA-S6K1; the interaction was inhibited by rapamycin.

Chains of the proteins cited; added tags and fusions are not shown. Lines headed by an entry give the natural chain unless they say otherwise; changes in a name come on top. A line that says so, or that is headed by a name, gives the form on record, which may keep a tag or linker.
UniProt P08151: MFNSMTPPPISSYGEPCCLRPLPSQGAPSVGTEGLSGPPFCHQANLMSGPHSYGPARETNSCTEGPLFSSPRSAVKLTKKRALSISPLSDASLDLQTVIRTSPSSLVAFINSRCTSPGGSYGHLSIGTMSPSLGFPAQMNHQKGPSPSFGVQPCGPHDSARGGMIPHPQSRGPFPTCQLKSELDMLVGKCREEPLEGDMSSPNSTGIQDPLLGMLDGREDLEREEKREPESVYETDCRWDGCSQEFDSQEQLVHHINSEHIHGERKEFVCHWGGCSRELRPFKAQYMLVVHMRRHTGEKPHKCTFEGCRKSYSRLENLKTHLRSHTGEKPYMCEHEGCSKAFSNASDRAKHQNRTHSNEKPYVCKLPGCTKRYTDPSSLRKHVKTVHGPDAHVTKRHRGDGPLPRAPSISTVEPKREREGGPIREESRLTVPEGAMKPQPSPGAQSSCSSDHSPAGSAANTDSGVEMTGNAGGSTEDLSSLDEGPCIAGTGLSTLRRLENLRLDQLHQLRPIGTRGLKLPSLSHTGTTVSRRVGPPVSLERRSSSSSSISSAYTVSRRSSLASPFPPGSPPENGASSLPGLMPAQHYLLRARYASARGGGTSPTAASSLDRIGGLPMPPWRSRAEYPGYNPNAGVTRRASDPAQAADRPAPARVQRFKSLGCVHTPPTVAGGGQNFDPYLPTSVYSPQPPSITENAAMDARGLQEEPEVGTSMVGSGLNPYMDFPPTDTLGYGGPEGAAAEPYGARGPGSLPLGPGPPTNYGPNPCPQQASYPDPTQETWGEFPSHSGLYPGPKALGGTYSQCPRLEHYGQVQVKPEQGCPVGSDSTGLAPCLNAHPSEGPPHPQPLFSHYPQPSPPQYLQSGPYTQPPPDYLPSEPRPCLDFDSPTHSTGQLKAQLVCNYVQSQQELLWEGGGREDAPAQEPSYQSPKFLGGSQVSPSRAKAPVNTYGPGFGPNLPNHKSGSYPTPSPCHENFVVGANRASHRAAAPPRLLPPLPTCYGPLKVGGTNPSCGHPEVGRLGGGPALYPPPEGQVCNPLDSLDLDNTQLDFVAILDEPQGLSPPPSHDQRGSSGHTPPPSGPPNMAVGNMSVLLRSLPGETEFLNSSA
HA-tagged constitutively activated S6K1T389E (P23443, form named): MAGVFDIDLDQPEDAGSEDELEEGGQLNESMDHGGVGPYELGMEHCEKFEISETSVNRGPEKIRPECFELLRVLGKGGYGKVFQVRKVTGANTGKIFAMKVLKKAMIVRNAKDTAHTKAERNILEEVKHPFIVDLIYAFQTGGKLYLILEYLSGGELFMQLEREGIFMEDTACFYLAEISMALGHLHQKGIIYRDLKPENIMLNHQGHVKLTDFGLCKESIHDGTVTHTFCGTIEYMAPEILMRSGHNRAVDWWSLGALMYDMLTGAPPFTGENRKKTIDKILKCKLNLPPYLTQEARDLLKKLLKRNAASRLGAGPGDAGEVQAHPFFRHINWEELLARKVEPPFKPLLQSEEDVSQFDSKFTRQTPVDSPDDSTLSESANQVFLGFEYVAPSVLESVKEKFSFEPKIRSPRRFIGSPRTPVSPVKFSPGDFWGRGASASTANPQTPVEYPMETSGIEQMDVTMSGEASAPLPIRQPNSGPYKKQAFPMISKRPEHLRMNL

From patent US20150017651A1 come the findings set out here.

These are yes or no findings as the source states them, for the method shown. Some results given as binding are weak or reduced against the parent protein; the word gives no strength.

As to “HA-tagged constitutively activated S6K1T389E (from UniProt P23443 1-502) (enzyme)”, the binding result in assay [1] is recorded as “binds”.

With “HA-tagged wild-type S6K1 (from UniProt P23443 1-502) (enzyme)”, the binding result in assay [2] is “binds”.
